# In patent US20260070976A1:
# Where a chain is given by its changes, count along the chain named. No constants are given. Whether binding was seen depends on the method and setting. Binding calls can cover weak binding; strength is not graded here.
# B1: X7 (antibody, human IgG4, V domains shown)
# VH: QVQLVQSGAEVKKPGSSVKVSCKASGYNFLNYDVNWVRQAPGQGLEWMGGIIPIFGTANYAQKFQGRVTITADESTSTAYMELSSLRSEDTAVYYCATGVGAGWFDPWGQGTLVTVSS
# VL: DIVMTQSPDSLAVSLGERATINCKSSQSVFFDENNKNYLAWYQQKPGQPPKLLIYWASTRESGVPDRFSGSGSGTDFTLTISSLQAEDVAVYYCQQYFEEPYTFGQGTRLEIK
# B2: X11 (antibody, human IgG4, V domains shown)
# VH: B1 VH
# VL: B1 VL with F30Y, D32S, F98Y
# B3: X18 (antibody, human IgG4, V domains shown)
# VH: B1 VH with N31H, G99A, P107T
# VL: B1 VL with F30W, E33P
# B4: X20 (antibody, human IgG4, V domains shown)
# VH: B1 VH with N31H, G99A
# VL: B1 VL with F30Y, D32S, F98Y
# B5: X14 (antibody, human IgG4, V domains shown)
# VH: B1 VH with N31H, G99A, P107T
# VL: B1 VL with F30Y, D32S, E33P
# B6: X4 (antibody, human IgG4, V domains shown)
# VH: B1 VH
# VL: B1 VL with F30Y, D32S, E33P
# B7: X17 (antibody, human IgG4, V domains shown)
# VH: B1 VH with N31H, G99A, P107T
# VL: B1 VL
# Target: cell surface PILRA on cynomolgus monocytes (cynomolgus monkey)
# Assay: flow cytometry; Alexa Fluor 647-conjugated antibody on cynomolgus monocytes (white blood cells), Fc receptors blocked, 30 min on ice
row,binding,Binder
1,binds,B1
2,binds,B2
3,binds,B3
4,binds,B4
5,binds,B5

# Target: cell surface PILRA on cynomolgus monocytes (cynomolgus monkey)
# Assay: Binding on cyno mono (cynomolgus monocytes), flow cytometry; summary cell
row,binding,Binder
1,binds,B1
2,binds,B2
3,binds,B3
4,binds,B4
5,binds,B5

# Target: recombinant cynomolgus PILRB (cynomolgus monkey)
# Assay: SPR
row,binding,Binder
1,binds,B1
2,binds,B2
3,binds,B3
4,binds,B6
5,binds,B4
6,binds,B5
7,binds,B7

# Target: cell surface PILRA on cynomolgus monocytes (cynomolgus monkey)
# Assay: flow cytometry, Alexa Fluor 647-conjugated antibody on cynomolgus monocytes
row,binding,Binder
1,binds,B1
2,binds,B2
3,binds,B3
4,binds,B4
5,binds,B5
